According to PubChem BioAssay AID493083 (Broad Institute, 2011):
The campaign covered roughly 2,400 compounds. About 95 (4%) were called active. This list was built around the results that the source calls inconclusive (neither active nor inactive); the mix of calls is not that of the screen.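 The calls were made as follows: active = compounds lowering signal whose fitted AC50 is at most ten times the top tested dose; inconclusive = flat fit with moderate inhibition, or poor curve fit; inactive = the rest.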

Experiment: GFP reporter loss versus dox-driven RFP – NIH3T3 R4 cells, cherry-pick, set 3, dose response (AID 493083);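 also: 0% = neutral control wells and -100% = didemnin B positive control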
Conditions: NIH3T3 R4 HSF-1 GFP reporter, heat shock, 48 h; at 19.5 µM (top of the series)

Row | Structure (SMILES) | activity change, negative = inhibition
1 | COc1cc2c(cc1OC)C(c1cc(Br)ccc1F)N(C(=O)CCl)CC2 (stereo not drawn) | inconclusive: 8.54%
2 | CC(=O)N1CCN(c2ccc(NC(=O)c3ccc([N+](=O)[O-])o3)cc2Cl)CC1 | inconclusive: -76.3%
3 | CCCCn1c(SCC(=O)NCc2ccco2)nc2c(sc3ccccc32)c1=O | inactive: -2.75%
4 | CN1/C(=C/C(=O)c2nc(S(C)(=O)=O)ncc2Cl)C(C)(C)c2ccccc21 | inconclusive: 75.1%
5 | COc1ccc(CC(=O)Nc2cc(C)on2)cc1 | inconclusive: 0.522%
6 | Cc1cc(C)cc(SCc2noc(C(=O)NCc3ccccc3)c2C(=O)NCc2ccccc2)c1 | inactive: -2.26%
7 | N#CC1=C(N)C(C#N)(C#N)C(c2cccnc2)C2CC(c3ccccc3)CC=C12 (stereo not drawn) | inconclusive: -65.3%
8 | COc1ccc(/C=N/NC(=O)c2cc(-c3cccn3C)n[nH]2)cc1OC | inactive: 1.97%
9 | CCN(C(=O)COC(=O)/C=C/c1ccccc1)C1CCCCC1 | inactive: -5.04%
10 | CCOC(=O)N1C(=O)[C@@](CC)(c2ccccc2)N1C(=O)OCC | inconclusive: 104%
11 | O=C(CC1Nc2ccccc2NC1=O)Nc1ccccc1NC(=O)CC1Nc2ccccc2NC1=O (stereo not drawn) | inconclusive: 226%
12 | O=C1C(Nc2ccccc2)=C/C(=N/S(=O)(=O)c2cccs2)c2ccccc21 | inconclusive: -34.9%
13 | CC1=NNC(=O)/C1=C\c1cn(-c2ccccc2)nc1-c1ccc(Cl)cc1 | inconclusive: -80.6%
14 | Cc1nn(-c2ccccc2)c(Cl)c1C(=O)N1CCN(c2ncnc3c2cnn3-c2ccccc2)CC1 | inconclusive: -43.3%
15 | Cc1nc(NCc2ccco2)c2c(C)c(C)sc2n1 | inconclusive: -30.7%
16 | O=[N+]([O-])c1cnc(Sc2ccncn2)s1 | inconclusive: -78.1%
17 | O=[N+]([O-])c1ccc(S(=O)(=O)c2ccccc2)nc1 | inconclusive: -82.4%
18 | COC(=O)/C(=C1/Oc2cc(C)oc(=O)c2S1)C(F)(F)F | inconclusive: -59.6%
19 | COc1ccc(C2CC23N=C(c2ccccc2)OC3=O)cc1 (stereo not drawn) | inconclusive: 121%
20 | O=C1C(=O)c2ccc(-c3ccccc3)cc2-c2ccccc21 | inconclusive: -36.8%
21 | CS(=O)(=O)c1nc(-c2ccccc2)cc(C(F)(F)F)n1 | inconclusive: -69.6%
22 | COc1ccccc1NC(=O)c1nc(S(=O)(=O)Cc2ccccc2)ncc1Cl | inconclusive: -59.6%
23 | CCCCn1c(=O)[nH]c(=O)c2c1nc(Cn1ncc(Cl)c(Cl)c1=O)n2CCC | inconclusive: -82.9%
24 | Cc1cccc(C)c1NC(=O)c1cccnc1 | inactive: -2.88%

Row | Structure (SMILES) | activity change, negative = inhibition
25 | Cc1cc(C)c(NC(=O)Nc2ccc3c(c2)OCO3)c(C)c1 | inactive: 10.5%
26 | O=C(CCl)Nc1ccc(Sc2ccc(NC(=O)CCl)cc2)cc1 | inconclusive: -40.2%
27 | Cc1ccc(-n2ncc(Br)c(Br)c2=O)cc1 | inactive: -70.3%
28 | O=C(O)c1ccc(CN2C(=O)c3cccc4c([N+](=O)[O-])ccc(c34)C2=O)cc1 | inconclusive: 81%
29 | COC(=O)CCS(=O)(=O)c1nc(-c2ccccc2)cc(C(F)(F)F)n1 | inconclusive: -68.2%
30 | CCOC(=O)/C(=C\c1ccc(OC(F)F)cc1)C1=Nn2c(nnc2-c2ccc(Cl)cc2)SC1 | inconclusive: -78%
31 | COc1ccccc1-c1nnc(SC2CCc3ccccc3NC2=O)s1 (stereo not drawn) | inactive: 16.7%
32 | O=C(C#Cc1ccccc1)c1ccco1 | inconclusive: -65%
33 | COc1ccc(CNC(=O)CCCNC(=O)c2ccc(Cl)cc2)cc1OC | inactive: -2.5%
34 | COc1ccc(-n2nc(C(=O)NCC(=O)NCc3ccccc3OC)c3ccccc3c2=O)c(OC)c1 | inactive: -1.43%
35 | COc1ccc(OC)c(-c2cc(C(=O)N/N=C/c3cc(OC)c(OC)cc3OC)c3ccccc3n2)c1 | inactive: 6.57%
36 | CC(C)N1CCC(N2CCN(C3CCCC3)CC2CCO)CC1 (stereo not drawn) | inactive: -0.505%
37 | O=C1C=CC(O)(c2cc(=O)c3c(O)cc(O)cc3o2)C=C1 | inconclusive: -37.4%
38 | COc1cccc(-n2ccnc2SCC(=O)Nc2ccccc2F)c1 | inactive: 9.89%
39 | CC1CCCN(S(=O)(=O)c2ccc(Br)s2)C1 (stereo not drawn) | inactive: 1.88%
40 | CC(=O)Oc1ccc(OC(C)=O)c(SCCCCCCl)c1 | inconclusive: -74%
41 | COc1ccccc1/C=C/CN1CCC(Oc2cc(C(=O)NC3CC3)ccc2OC)CC1 | inactive: 7.7%
42 | CCCNC(=O)c1nnsc1S(=O)c1ccc(Cl)cc1 (stereo not drawn) | inconclusive: -60.8%
43 | Cc1cc(C)c(S(=O)(=O)/N=C2\C=C(Nc3ccc(C(=O)O)cc3)C(=O)c3ccccc32)c(C)c1 | inconclusive: -71.6%
44 | O=c1[nH]cc(S(=O)(=O)c2ccccc2)[nH]1 | inactive: -5.55%
45 | O=C(/C(=C(\[O-])c1ccccc1)[n+]1ccc2ccccc2c1)c1ccc([N+](=O)[O-])cc1 | inactive: -3.91%
46 | CCN(CC)c1ccc2nc3c4ccccc4c(=O)cc-3oc2c1 | inconclusive: 200%
47 | COC(=O)C1=C(C(=O)OC)[C@@H]2N(C)c3ccccc3[C@@]23C[C@@H](C(=O)OC)N(C(=O)CC(C)C)C3=N1 | inactive: 0.888%
48 | CCN1C/C(=C/c2ccc(OC)c(O)c2)C(=O)/C(=C/c2ccc(OC)c(O)c2)C1 | inconclusive: -62.1%

Quoted from the listing:
COC(=O)C1=C(C(=O)OC)[C@@H]2N(C)c3ccccc3[C@@]23C[C@@H](C(=O)OC)N(C(=O)CC(C)C)C3=N1 – activity change, negative = inhibition: inactive: 0.888%
O=c1[nH]cc(S(=O)(=O)c2ccccc2)[nH]1 – activity change, negative = inhibition: inactive: -5.55%
